Results published in paper doi:10.1101/2023.02.08.527602 (bioRxiv, 2023).
These are yes or no findings as the source states them, for the method shown. Binding seen in cells or lysates may run through a third protein. Some binding calls cover weakened binding; strength is not graded here.

Sequences of proteins named here, by UniProt entry; tags and fusion partners are left off. Residues count along the entry.
UniProt P28799, residues 18-593: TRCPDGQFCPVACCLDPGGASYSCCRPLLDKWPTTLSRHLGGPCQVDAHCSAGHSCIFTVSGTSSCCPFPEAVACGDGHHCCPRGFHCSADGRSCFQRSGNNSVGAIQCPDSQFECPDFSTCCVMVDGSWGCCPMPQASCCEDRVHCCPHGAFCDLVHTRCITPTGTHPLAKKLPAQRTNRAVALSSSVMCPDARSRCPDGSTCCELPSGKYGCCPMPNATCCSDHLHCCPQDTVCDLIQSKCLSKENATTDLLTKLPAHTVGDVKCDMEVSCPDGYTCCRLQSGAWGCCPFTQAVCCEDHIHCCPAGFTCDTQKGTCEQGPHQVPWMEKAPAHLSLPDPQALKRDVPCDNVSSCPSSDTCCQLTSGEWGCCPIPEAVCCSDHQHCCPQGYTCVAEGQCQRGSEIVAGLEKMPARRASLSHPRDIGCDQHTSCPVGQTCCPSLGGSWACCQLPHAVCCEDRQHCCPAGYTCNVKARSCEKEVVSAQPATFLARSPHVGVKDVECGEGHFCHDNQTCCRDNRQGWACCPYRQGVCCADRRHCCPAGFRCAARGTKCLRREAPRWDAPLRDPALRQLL
UniProt Q96PQ0, residues 51-1159: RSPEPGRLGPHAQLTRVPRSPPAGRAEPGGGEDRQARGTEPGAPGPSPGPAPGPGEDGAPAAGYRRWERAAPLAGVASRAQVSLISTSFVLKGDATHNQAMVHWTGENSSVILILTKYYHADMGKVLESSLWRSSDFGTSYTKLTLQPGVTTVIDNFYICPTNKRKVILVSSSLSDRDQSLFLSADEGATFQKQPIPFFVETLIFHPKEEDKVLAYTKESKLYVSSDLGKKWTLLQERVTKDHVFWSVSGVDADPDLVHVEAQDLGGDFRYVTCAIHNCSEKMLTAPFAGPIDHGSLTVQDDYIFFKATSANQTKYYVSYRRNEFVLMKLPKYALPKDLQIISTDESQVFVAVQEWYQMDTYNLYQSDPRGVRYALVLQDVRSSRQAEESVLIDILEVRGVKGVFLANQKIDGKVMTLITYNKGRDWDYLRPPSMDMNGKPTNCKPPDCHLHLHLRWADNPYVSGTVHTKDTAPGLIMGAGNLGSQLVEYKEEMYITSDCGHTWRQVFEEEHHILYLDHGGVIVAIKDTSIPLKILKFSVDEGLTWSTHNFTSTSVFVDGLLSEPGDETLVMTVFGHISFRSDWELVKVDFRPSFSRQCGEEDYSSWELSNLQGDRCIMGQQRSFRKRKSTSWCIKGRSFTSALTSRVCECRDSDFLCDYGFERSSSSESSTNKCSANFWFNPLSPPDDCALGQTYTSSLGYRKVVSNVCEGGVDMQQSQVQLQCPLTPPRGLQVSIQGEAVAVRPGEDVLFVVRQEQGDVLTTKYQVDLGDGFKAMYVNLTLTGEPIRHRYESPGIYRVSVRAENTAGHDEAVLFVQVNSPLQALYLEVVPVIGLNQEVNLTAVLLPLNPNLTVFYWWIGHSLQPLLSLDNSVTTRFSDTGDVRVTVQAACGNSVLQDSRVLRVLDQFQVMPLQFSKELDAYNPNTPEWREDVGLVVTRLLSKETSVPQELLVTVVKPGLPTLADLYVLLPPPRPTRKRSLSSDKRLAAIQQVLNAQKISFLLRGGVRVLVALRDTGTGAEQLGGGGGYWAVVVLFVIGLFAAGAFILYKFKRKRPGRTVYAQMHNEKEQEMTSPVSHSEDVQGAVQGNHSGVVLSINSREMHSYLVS

Key:
[1] = molecular target: N-terminally HA-tagged human progranulin overexpressed in HEK293 cells (human) (UniProt P28799); test: co-IP
[2] = molecular target: human progranulin overexpressed in HEK293 cells (human) (UniProt P28799); test: co-IP

binding [1]: binds
binding [2]: binds
Substance: proform of human SorCS2 (from the full-length construct in HEK293 cells) (from UniProt Q96PQ0 51-1159) (receptor)
